About 770 (0.35%) of roughly 220,000 compounds were called active. This list was built around the results that the source calls inconclusive (neither active nor inactive); the mix of calls is not that of the screen. Cut-off read from the data, not from the text of the source: active = binding response below about 49% or above about 150%; inconclusive = no clear call, values can overlap the other calls; inactive = in between.
Biological target: Guanine nucleotide-binding protein G(o) subunit alpha (Homo sapiens) (UniProt P09471)
Experiment: RGS7-Galphao binding modulators, primary screen, biochemical, multiplexed bead flow cytometry (AID 1439);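 note: fluorescent Galphao held in activated GDP-AlF4 state binding bead-coupled RGS7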
Conditions: at 10 µM, actives lie on both sides

Amino acid sequences for entries named in this document (tags omitted).
UniProt P09471, whole entry, looked up: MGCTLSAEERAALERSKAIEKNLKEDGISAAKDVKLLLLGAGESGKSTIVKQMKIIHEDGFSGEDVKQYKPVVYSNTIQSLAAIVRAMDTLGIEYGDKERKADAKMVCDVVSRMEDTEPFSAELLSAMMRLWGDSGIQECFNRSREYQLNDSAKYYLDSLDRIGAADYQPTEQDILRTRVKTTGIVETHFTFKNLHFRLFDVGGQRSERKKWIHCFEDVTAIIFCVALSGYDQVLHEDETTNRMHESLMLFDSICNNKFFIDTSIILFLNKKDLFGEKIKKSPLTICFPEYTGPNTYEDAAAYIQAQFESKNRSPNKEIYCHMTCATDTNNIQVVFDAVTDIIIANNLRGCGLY

Row | SMILES | binding response (% of control)
1 | C=CCn1c(-c2ccc(C)cc2)nc2ccccc21 | inactive: 114%
2 | CCC(C)(C)C1CCC(=NNC(=O)c2ccoc2C)CC1 (stereo not drawn) | inactive: 101%
3 | COc1ccccc1NS(=O)(=O)c1cc(NC(=O)CCC2CCCC2)ccc1N1CCOCC1 | inconclusive: 77.5%
4 | CC(/C=N/n1c(-c2ccccn2)n[nH]c1=S)=C\c1ccccc1 | inconclusive: 82.2%
5 | CN1CCN(S(=O)(=O)c2ccc(NCc3ccc4c(c3)OCO4)nc2)CC1 | inconclusive: 364%
6 | O=C(C[n+]1cc(-c2ccc(F)cc2)n2c1CCC2)c1cccs1 | inconclusive: 107%
7 | Cc1ccc(C)c(NC(=O)CSc2nc3nc(-c4cccs4)cc(C(F)(F)F)c3c(=O)[nH]2)c1 | inconclusive: 143%
8 | CCN1C(=O)CS/C1=N\S(=O)(=O)c1ccccc1 | inconclusive: 226%
9 | Nc1ccc(N=Nc2ccccc2Cl)c(N)n1 | inconclusive: 89.4%
10 | FC(F)(Cl)c1nnc2ccc(Cl)nn12 | inactive: 95%
11 | Cc1ccccc1C(=O)Nc1nnc(CC(=O)N/N=C/c2cn(Cc3ccccc3)c3ccccc23)s1 | inconclusive: 76.5%
12 | COc1nc(/C=C/N(C)C)c([N+](=O)[O-])c(OC)n1 | inconclusive: 162%
13 | O=C(NC1CCCCC1)c1ccccc1C(F)(F)F | inconclusive: 73.4%
14 | COc1ccc(-n2c(SCC(=O)O)nnc2-c2ccc(NC(=O)c3ccccc3)cc2)cc1 | inconclusive: 55.1%
15 | Cc1ccc(NC(=O)CN(C)CC(=O)Nc2ccc(N3CCOCC3)cc2)cc1F | inconclusive: 112%
16 | Cc1ccc(N2CCN(C(=O)N3CCOCC3)CC2)c(C)c1 | inactive: 103%
17 | Cc1sc2nc(COC(=O)c3ccc(Cl)c(N)c3)[nH]c(=O)c2c1C | inconclusive: 110%
18 | COC(=O)c1ccc(C23CC4(C2)[C@H](CN(Cc2ccc(-c5ccccc5)cc2)[C@@H]4c2ccccc2)C3c2ccc(C(F)(F)F)cc2)cc1 (stereo partly drawn) | inconclusive: 113%
19 | CC(C)c1c(O)nc(SCCOc2ccc(Cl)cc2)[nH]c1=O | inconclusive: 109%
20 | Cc1nc(-c2ccc(S(=O)(=O)Oc3ccccc3Cl)s2)cs1 | inconclusive: 109%

Row | SMILES | binding response (% of control)
21 | CC(C)c1cc(O)c(-c2ccccc2)c(=O)n1-c1ccc(Cl)cc1 | inconclusive: -363%
22 | CCn1c(SCC(=O)N/N=C/c2ccncc2)nc2ccccc21 | inconclusive: 10.1%
23 | Cc1cccc(NC(=O)c2cc3ccccc3nc2C)c1 | inconclusive: 106%
24 | COc1ccc(C(=O)O)nc1C | inconclusive: 79.9%
25 | COc1ccc(C2(CCN=Cc3ccc(N(C)C)cc3)CCOC(C)(C)C2)cc1 (stereo not drawn) | inconclusive: 87.4%
26 | CCCCN1C(=S)NC[C@@H]1Cc1cccc2ccccc12 | inconclusive: 84.3%
27 | CCc1nc(SCC(=O)NCCc2ccccc2)c2c(=O)n(C)c(=O)n(C)c2n1 | inconclusive: 73.8%
28 | CCN(CC)c1ccc(/C=N/NC(=O)c2ccoc2C)cc1 | inconclusive: 97.3%
29 | O=C(O)C1C(C(=O)O)C1(c1ccccc1)c1ccccc1 (stereo not drawn) | inconclusive: 109%
30 | OC1(CC#CCN2CCCCC2)c2ccccc2-c2ccccc21 | inconclusive: 46%
31 | Cc1cccc(NC(=O)C(Cc2ccccc2)n2cccc2)c1 (stereo not drawn) | inconclusive: 106%
32 | COc1cccc(OC)c1NC(=O)NC(=O)c1c(OC)c(Br)cc([N+](=O)[O-])c1OC | inconclusive: -164%
33 | COc1ccc(Br)cc1/C=N/NC(=O)c1cccc(S(=O)(=O)N2CCOCC2)c1 | inactive: 112%
34 | C=CCN1CN(CCc2ccccc2)CNC1=S | inconclusive: 14.3%
35 | O=C(Nc1nncs1)c1cccc(S(=O)(=O)N2CCc3ccccc32)c1 | inconclusive: 88.3%
36 | C/C(=N\Nc1cc(C)nc(NCc2ccccc2)n1)c1cccc([N+](=O)[O-])c1 | inconclusive: 106%
37 | N#Cc1c(NC(=O)c2cnn3cccnc23)sc2c1CCCC2 | inconclusive: 102%
38 | COc1cc(/C=C2\SC(=O)N(c3ccc(O)cc3)C2=O)cc(OC)c1OC | inconclusive: 180%
39 | N#Cc1c(NC(=O)c2cccc(S(=O)(=O)Nc3ccc(C(=O)O)cc3)c2)sc2c1CCCC2 | inconclusive: 138%
40 | COc1cccc(OC)c1C(=O)NC(=O)Nc1c(F)cc(F)cc1F | inconclusive: 101%

Given with tabs: entries from further up
Row	SMILES	binding response (% of control)
19	CC(C)c1c(O)nc(SCCOc2ccc(Cl)cc2)[nH]c1=O	inconclusive: 109%
20	Cc1nc(-c2ccc(S(=O)(=O)Oc3ccccc3Cl)s2)cs1	inconclusive: 109%

Single entries from above:
binding response (% of control) with `N#Cc1c(NC(=O)c2cnn3cccnc23)sc2c1CCCC2` is entered as inconclusive: 102%
binding response (% of control) with `CCCCN1C(=S)NC[C@@H]1Cc1cccc2ccccc12` is entered as inconclusive: 84.3%

(cont.)

Row | SMILES | binding response (% of control)
41 | Cc1cc(-c2ccc(C(=O)O)s2)cnc1N | inconclusive: 97.9%
42 | CC(=O)c1ccc(-c2ccc(C(=O)NC3CCCCCC3)o2)cc1 | inactive: 101%
43 | O=C(Nc1nnc(-c2ccc(F)cc2)s1)Nc1ccccc1F | inconclusive: 96%
44 | CSc1nc2sc3c(c2c(=O)n1CC(C)C)CC(C)(C)OC3 | inconclusive: 134%
45 | O=C(CC1Sc2ccccc2NC1=O)NNC(=O)Nc1ccc(Cl)cc1 (stereo not drawn) | inconclusive: 99.6%
46 | CCOC(=O)c1cc(-c2cccnc2)nn1-c1ccccc1 | inconclusive: 72.1%
47 | COCCn1c(-c2ccc(Br)cc2)nc2oc3cc(OC)ccc3c(=O)c2c1=O | inconclusive: 178%
48 | CCOc1ccc(NC(=O)c2ccc3c(SCC(=O)O)c4c(nc3c2)CCCC4)cc1 | inconclusive: 100%
49 | COC(=O)c1sc(NC(=O)C2CCCO2)c(C(=O)OC)c1C (stereo not drawn) | inactive: 99.1%
50 | Cc1cc(C)nc(Nc2n[nH]c(-c3ccccc3N)n2)n1 | inconclusive: 96.9%
51 | Cc1ccc(Nc2c3c(nc4ncnn24)CCC3)cc1 | inactive: 142%
52 | CCC1=C(OC(=O)N(CC)CC)N2C(=O)OC(=NCc3ccccc3)[C@]2(C)[C@H]2C1=CC[C@H]1C(=O)NC(=O)[C@H]12 | inconclusive: 87.4%
53 | COc1ccc(OC)c(/C=C2\SC(=S)N(Cc3cccnc3)C2=O)c1 | inactive: 88%
54 | O=C(Cn1cccn1)c1ccccc1 | inconclusive: 83.6%
55 | S=C(N/N=C/c1cccc2ccccc12)Nc1cccc(Cl)c1 | inconclusive: 78.2%
56 | Cc1cccc(C)c1NC(=O)CSC(=O)c1sc2ccccc2c1Cl | inconclusive: 245%
57 | O=C(NCCN1CCCOC1=O)C(=O)NCCN1CCCOC1=O | inconclusive: 98.6%
58 | Cn1c(N)c(C(=O)COC(=O)CCc2ccccc2)c(=O)n(C)c1=O | inconclusive: 112%

Reference: PubChem BioAssay AID1439 (NMMLSC, 2008)
